At least one compound was matched to its structure with a doubt left.
Tested on: colon carcinoma tumor mass
Test: Photodynamic therapy of a solid tumor with implanted LED light source probes after oral ALA
Format: in vivo, human
Conditions: following PDT and debridement; noted by the patient
From the text: A patient in the terminal phase of recurrent malignant colon cancer presented with a protruding colon carcinoma tumor mass of approximately 500 grams and approximately 13 cm in diameter, which extended through the patient's dermis. Due to the advanced state of the patient's disease and due to the highly vascularized nature of this tumor mass, resection was not feasible. Further, this large tumor mass presented a significant amount of pain and discomfort to the patient, as well as greatly impairing the patient's ability to lie flat.
Six separate light source probes, each including a linear array of LEDs, were surgically implanted in this large human tumor using standard surgical procedures. An intensity of about 25-30 mW of light from each light source probe (650 nm peak wavelength) was delivered to the tumor for 40 hours following oral administration to the patient of a single dose of an (ALA) photosensitizer agent (60 mg/kg). However, after 18 hours, two of the light source probes became unseated from the tumor mass and were disconnected from the electrical power supply used to energize the LEDs on each probe. The total fluence delivered to the tumor bed during this single extended duration treatment was in excess of 20,000 Joules. […]

SMILES: NCC(=O)CCC(=O)O [ALA, aminolevulinic acid]
- patient's quality of life: significant improvement

From US6602274B1, “Targeted transcutaneous cancer therapy” (Light Sciences Corporation, priority 1999, dated 2003)
